Results on 63 molecules are retold here after PubChem BioAssay AID651660 (Broad Institute, 2012).

Chains of the proteins cited; added tags and fusions are not shown. Lines headed by an entry give the natural chain unless they say otherwise; changes in a name come on top.
UniProt P43351: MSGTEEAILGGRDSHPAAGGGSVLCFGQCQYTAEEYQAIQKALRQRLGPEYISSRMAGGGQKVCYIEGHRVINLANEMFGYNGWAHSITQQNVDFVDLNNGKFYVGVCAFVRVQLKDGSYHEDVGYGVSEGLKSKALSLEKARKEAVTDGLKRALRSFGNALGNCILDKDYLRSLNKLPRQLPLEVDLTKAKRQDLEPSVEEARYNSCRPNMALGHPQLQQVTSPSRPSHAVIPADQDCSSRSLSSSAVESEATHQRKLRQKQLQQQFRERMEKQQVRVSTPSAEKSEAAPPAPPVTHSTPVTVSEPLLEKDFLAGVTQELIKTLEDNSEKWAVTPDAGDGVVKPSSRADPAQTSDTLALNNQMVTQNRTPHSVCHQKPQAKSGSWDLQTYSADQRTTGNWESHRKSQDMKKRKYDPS

The structures appear in SMILES notation. In all, about 1,900 compounds went through this assay and about 15 (0.8%) were called active.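 The calls were made as follows: active = every replicate shows at least 50% inhibition; inconclusive = mean inhibition at least 50% but some replicate below; inactive = the rest.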 The list shows a part of the results.

The target in the experiment is DNA repair protein RAD52 homolog (Homo sapiens) (UniProt P43351). The experiment in a line: RAD52 ssDNA annealing inhibitors, primary screen, biochemical, FRET, single point (AID 651660).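 Also: 0% = median of neutral control wells and 100% = median of positive control wells.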 To be noted: Recombinant RAD52 ssDNA annealing, FRET fluorescence, 30 min; at 18.7 µM; hits give high values.
Regarding `COc1ccc(-c2coc3c(CN4CCOCC4)c(O)ccc3c2=O)cc1`, the inhibition is inactive: 7.99%.
`N/C(=N\OC(=O)c1cccc(Br)c1)c1ccncc1`: the inhibition is inactive: 4.52%.
As for `Nc1cccc2nc3ccccc3cc12`, the inhibition was active: 99.5%.
Take `O=C(NC1CC1)C1CCN(C2CCN(C(=O)Cc3ccc(F)cc3)CC2)CC1`: the inhibition is inactive: -24.2%.
Next, `COC(=O)CN1C(=S)N(c2ccc(F)cc2)C(=O)C1CC(=O)Nc1ccccc1` (stereo not drawn): inactive: -1.21%; `COc1ccc(CCN(C)CCCC(C#N)(c2ccc(OC)c(OC)c2)C(C)C)cc1OC` (stereo not drawn): inactive: 10.9%.
Next, `CCCc1cc(=O)[nH]c(=S)[nH]1`: inactive: -9.29%; `CCOC(=O)C(=O)Nc1ccc(Oc2ccccc2)cc1`: inactive: 1.4%.
As to `COc1ccccc1C(=O)Nc1cc2cc(Br)ccc2oc1=O`, the inhibition is inactive: -5.75%.
In the case of `CCCCC(=O)O[C@H]1CC[C@H]2[C@@H]3CCc4cc(O)ccc4[C@H]3CC[C@]12C`, the inhibition was inactive: -4.64%.
As for `N=C(N)c1ccc(OCCCCCOc2ccc(C(=N)N)cc2)cc1`, the inhibition was inactive: 17.2%.
Next, `CCN(CC)CCN1C(=O)C(=O)/C(=C(/O)c2c(C)[nH]c(C(=O)OC)c2C)C1c1cccnc1` (stereo not drawn): inactive: 5.33%.
The same measure for `CC(=O)C1=C(O)C(=O)N(CC(=O)O)C1c1ccccc1Cl` (stereo not drawn): inactive: -2.25%; for `CC/C(=C1/C(=O)CC(C)(C)C(C(=O)OC)C1=O)N1CCCC1` (stereo not drawn): inactive: -6.04%.
The same measure for `CC(=O)c1c(N)nc2n(c1=O)CCCCC2`: inactive: 2.15%; for `O=C(O)[C@@H](O)c1ccccc1`: inactive: -3.32%.
Take `C/C(CCc1oc2ccc(Cl)cc2c1-c1ccc(C)o1)=N\O`: the inhibition was inactive: -11.8%.
The same measure for `Nc1nc(Cl)nc2c1ncn2[C@H]1C[C@H](O)[C@@H](CO)O1`: inactive: -10.2%; for `CN(Cc1c(C(=O)N(C)Cc2ccccc2)nc2ccccn12)CC1Cc2ccccc2O1` (stereo not drawn): inactive: -5.82%.
As to `N/C(Cc1ccc(Cl)cc1Cl)=N\OC(=O)c1ccc(Br)o1`, the inhibition is inactive: -2.4%.
As for `c1ccc2c(c1)CCOC2CNCCCN1CCCCC1` (stereo not drawn), the inhibition is inactive: 10.7%.
`OCCC1CN(Cc2nc(-c3ccccc3)cs2)CCN1Cc1ccc(F)cc1` (stereo not drawn): the inhibition is inactive: -12.9%.
The same measure for `CCN1C(=O)C(CC(=O)Nc2ccc(OC)cc2)N(CCc2ccc(F)cc2)C1=S` (stereo not drawn): inactive: 10.5%; for `CC1(C)Oc2ccc(C#N)cc2[C@@H](N2CCCC2=O)[C@@H]1O`: inactive: -2.72%.
`CC[N+](C)(C)Cc1ccccc1Br`: the inhibition was inactive: 0.172%.
Turning to `O=C(NCc1ccccc1Cl)NC(=O)c1ccccc1`, the inhibition is inactive: -5.59%.
For the molecule `Cc1oncc1C(=O)Nc1ccc(C(F)(F)F)cc1`, the inhibition was inactive: 1.57%.
The same measure for `COc1ccc(C(Cl)=C(c2ccc(OC)cc2)c2ccc(OC)cc2)cc1`: inactive: 3.47%; for `O=C(O)c1cccnc1Nc1cccc(C(F)(F)F)c1`: inactive: -14.4%; for `C[C@]12CCC(=O)C=C1[C@H](O)C[C@@H]1[C@@H]2[C@@H](O)C[C@@]2(C)[C@H]1CC[C@]2(O)C(=O)CO`: inactive: -6.84%.
Next, `Cc1[nH]nc(-c2ccc(O)cc2O)c1Oc1ccccc1`: inactive: 0.257%.
The same measure for `CC(CCc1ccccc1)NCC(O)c1ccc(O)c(C(N)=O)c1` (stereo not drawn): inactive: 0.728%; for `CCc1cc2c(=O)c(-c3ccc4c(c3)OCCO4)coc2c(CN2CCCCC2C)c1O` (stereo not drawn): inactive: 8.37%; for `Cc1ccc(Cl)c(OCCCN(C)Cc2ccccc2)c1`: inactive: 5.98%.
For the molecule `Cn1c(SCC(=O)c2ccccc2)nnc1-c1ccncc1`, the inhibition was inactive: -2.42%.
The same measure for `CN(C)CCCN1c2ccccc2Sc2ccccc21`: inactive: 7.51%; for `Cc1cc(C(C)(C)C)c(O)c(C)c1CC1=NCCN1`: inactive: -10.1%; for `Nc1c(C(=O)c2ccccc2)oc2ccccc12`: inactive: -6.4%.
The same measure for `C[C@]12CC[C@@H]3c4ccc(O)cc4CC[C@H]3[C@@H]1CC[C@@H]2OC(=O)CCC(=O)O`: inactive: -1.23%; for `CC(=O)N(CCC(Cc1ccccc1)c1ccco1)Cc1ccco1` (stereo not drawn): inactive: -17.2%.
Next, `O=C(NCc1ccc(N2CCCC2=O)cc1)c1cccc(Cl)c1`: inactive: 0.043%.
For the molecule `Cc1ccc2c(c1)c1c3n2CCCNC3CCC1` (stereo not drawn), the inhibition was inactive: 2.29%.
Consider `COc1ccc(C2N3CC4(C)CN2CC(C)(C3)C4)cc1OC` (stereo not drawn), for which the inhibition was inactive: 0.63%.
The same measure for `CCC(=O)Oc1ccc(/C(CC)=C(\CC)c2ccc(OC(=O)CC)cc2)cc1`: inactive: -4.46%; for `COc1ccc2c(c1OC)C(=O)OC2C1c2c(cc3c(c2OC)OCO3)CCN1C` (stereo not drawn): inactive: 3.26%.
Next, `COc1ccc(CCNC(=O)c2ccc(Cl)cc2)cc1OC`: inactive: -3.26%; `CCCN1C[C@H](CSC)C[C@@H]2c3cccc4[nH]cc(c34)C[C@H]21`: inactive: 9.59%.
The same measure for `Nc1cccc(C(=O)O)c1`: inactive: 4.25%; for `COc1cc(CNCc2ccc(OC)c(OC)c2OC)cc(OC)c1`: inactive: -2.96%; for `CCN1C(=O)C(CC(=O)Nc2ccc(F)cc2)N(Cc2ccco2)C1=S` (stereo not drawn): inactive: -9.52%.
Consider `COc1ccc2[nH]cc(C(=O)CCl)c2c1`, for which the inhibition is inactive: 3.43%.
For `Cc1[nH]c2ccccc2c1/C=C/c1nc2ccccc2c(=O)n1CCO`, the inhibition is inactive: -5.68%.
The same measure for `O=C(Nc1ccccc1)c1ccccc1CCc1ccccc1`: inactive: -0.492%; for `Cc1ccc(CN2CCN(CCCc3ccccc3)CC2CCO)cc1` (stereo not drawn): inactive: -4.16%; for `CCN(Cc1cnn(C)c1)Cc1nc(C(c2ccccc2)c2ccccc2)no1`: inactive: 1.94%.
The same measure for `CC1=C(/C=C/C(C)=C/C=C/C(C)=C/C(=O)O)C(C)(C)CCC1`: inactive: -5.74%; for `Cc1cc(=O)oc2cc(OC(C)C(=O)NCC3CCCO3)ccc12` (stereo not drawn): inactive: -5.47%; for `CCO/C([O-])=N/c1c[n+](N2CCOCC2)no1`: inactive: -1%.
Next, `COc1ccc(CCNc2ncnc3c2[nH]c2cc(OC)c(OC)cc23)cc1OC`: active: 68.2%.
On to `COc1cc(C(=O)NCCCCCC(=O)O)cc(OC)c1OC`, for which the inhibition is inactive: 0.198%.
In the case of `COCCOC(=O)c1c(C)oc2ccc(OCc3cc(C(=O)OC)oc3C)cc12`, the inhibition is inactive: -1.18%.
Next, `O=C1C(=O)c2ccccc2C(O)=C1c1ccccc1F`: inactive: 9.88%.
For the molecule `COc1cc(OC)c(C2C(C#N)=C(N)OC3=C2C(=O)CC(C)(C)C3)cc1OC` (stereo not drawn), the inhibition was inactive: -2.55%.
